The test has as its target T1, myoglobin (rat (endogenous in Sprague-Dawley rat kidney)) (UniProt Q9QZ76).
T1 sequence: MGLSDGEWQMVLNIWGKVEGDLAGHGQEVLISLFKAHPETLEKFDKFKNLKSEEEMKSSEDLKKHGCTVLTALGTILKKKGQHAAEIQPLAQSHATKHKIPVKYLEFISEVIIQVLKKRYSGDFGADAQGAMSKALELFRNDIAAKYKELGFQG
Put plainly: co-IP; kidneys of sham and CS rats at 12 h lysed in IP lysis buffer; 1 ug monoclonal anti-myoglobin antibody and protein-A magnetic beads, 4 °C overnight; washed three times; Western blotting with anti-RIG-I.

Results are given in words; binding and its absence hold for the method and conditions named. In cells and extracts the contact can be indirect. Binding can be weak; no strength is given.

With Retinoic acid-inducible gene I, the binding entry is reported as “binds”.

(Values after article PMC8215750.)
